For at least one entry, the source does not settle the construct or the ends of the probe. Where only a bound is given, the exact number is not on record here.

Chains of the proteins cited; added tags and fusions are not shown. Chains listed by the source or under a name are the forms on record and can include a tag or linker.
Fibrinogen (Homo sapiens), one chain, as listed by the source, chain 1 of 3: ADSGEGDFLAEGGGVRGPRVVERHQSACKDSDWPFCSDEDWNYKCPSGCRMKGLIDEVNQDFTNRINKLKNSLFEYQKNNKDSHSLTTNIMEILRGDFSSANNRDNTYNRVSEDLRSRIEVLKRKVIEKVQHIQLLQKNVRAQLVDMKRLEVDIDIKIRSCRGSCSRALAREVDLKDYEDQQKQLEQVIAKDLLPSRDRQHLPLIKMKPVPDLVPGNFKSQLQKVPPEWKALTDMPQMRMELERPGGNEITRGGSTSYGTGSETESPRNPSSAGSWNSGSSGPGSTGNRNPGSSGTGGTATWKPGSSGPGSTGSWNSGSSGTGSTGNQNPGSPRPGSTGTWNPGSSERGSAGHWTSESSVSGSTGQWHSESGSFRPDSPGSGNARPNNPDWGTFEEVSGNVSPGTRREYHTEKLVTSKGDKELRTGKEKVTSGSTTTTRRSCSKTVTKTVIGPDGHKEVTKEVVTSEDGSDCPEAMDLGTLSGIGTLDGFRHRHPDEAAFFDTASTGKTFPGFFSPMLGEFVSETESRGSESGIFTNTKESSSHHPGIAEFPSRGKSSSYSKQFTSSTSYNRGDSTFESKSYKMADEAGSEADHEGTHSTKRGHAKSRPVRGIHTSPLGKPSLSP
Fibrinogen (Homo sapiens), one chain, as listed by the source, chain 3 of 3: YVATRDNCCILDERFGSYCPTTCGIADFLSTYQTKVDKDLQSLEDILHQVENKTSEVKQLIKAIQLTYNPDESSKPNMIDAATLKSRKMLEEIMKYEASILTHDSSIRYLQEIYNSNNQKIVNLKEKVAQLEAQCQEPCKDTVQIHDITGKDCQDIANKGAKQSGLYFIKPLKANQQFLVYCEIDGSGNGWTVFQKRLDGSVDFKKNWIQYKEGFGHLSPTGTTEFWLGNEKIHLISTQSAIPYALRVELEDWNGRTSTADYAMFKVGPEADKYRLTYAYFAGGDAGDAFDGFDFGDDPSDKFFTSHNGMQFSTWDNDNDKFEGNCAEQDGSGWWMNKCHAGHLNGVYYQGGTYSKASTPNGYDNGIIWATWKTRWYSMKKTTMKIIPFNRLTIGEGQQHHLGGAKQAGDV
Fibrinogen (Homo sapiens), one chain, as listed by the source, chain 2 of 3: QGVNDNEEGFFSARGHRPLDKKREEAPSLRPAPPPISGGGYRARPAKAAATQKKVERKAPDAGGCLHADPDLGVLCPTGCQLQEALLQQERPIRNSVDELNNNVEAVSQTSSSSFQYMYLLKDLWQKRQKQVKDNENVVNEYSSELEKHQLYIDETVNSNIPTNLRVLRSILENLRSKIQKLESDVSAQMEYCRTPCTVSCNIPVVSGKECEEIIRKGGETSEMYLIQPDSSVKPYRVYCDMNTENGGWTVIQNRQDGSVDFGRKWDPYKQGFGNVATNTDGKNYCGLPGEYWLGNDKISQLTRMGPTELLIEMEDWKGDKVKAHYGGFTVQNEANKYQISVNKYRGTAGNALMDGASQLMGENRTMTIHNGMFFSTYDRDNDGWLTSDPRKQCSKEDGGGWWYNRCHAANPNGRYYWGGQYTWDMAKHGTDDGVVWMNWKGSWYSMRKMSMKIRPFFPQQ

In one data set the test system is Fibrinogen (Homo sapiens). As to the kind of experiment: filter binding. To be noted: 2'-F pyrimidines; high class; printed l mM, probably uM; Motif I definitive Kd 200-600 nM.
“GGGAGAUAAGAAUAAACGCUCAAGCAAUCUCGGACUAGGCUAACGACCUUUGUUUGACGCUCAUUCGACAGGAGGCUCACAACAGGC [FCN11]” gave a Kd of less than 0.001 mM.

Turning to “GGGAGAUAAGAAUAAACGCUCAAGCAAUCUCGGACUAGACUAACGACCUUGGUUUGACGCUAAUUCGACAGGAGGCUCACAACAGGC [FC50]”, the Kd was less than 0.001 mM.

In the case of “GGGAGAUAAGAAUAAACGCUCAAGCAAUCUCGGACUAGACUAACGACCUUCGUUUGACGCUUAUUCGACAGGAGGCUCACAACAGGC [FCN14]”, the Kd is less than 0.001 mM.

For “GGGAGAUAAGAAUAAACGCUCAAGCAAUCUCGGACUAGACUAACGACCUUCGUUUGACGCUCAUUCGACAGGAGGCUCACAACAGGC [FC51]”, the equilibrium dissociation constant (Kd) is less than 0.001 mM.

The same data set, now with this note: 2'-F pyrimidines; low class; Motif II extrapolated Kd >100 uM.
Take “GGGAGAUAAGAAUAAACGCUCAAAGUAGGUGAGGCUUCUGGACUGAAGUAACUAGGUCGGUUCUUCGACAGGAGGCUCACAACAGGC [FCN72]”: the Kd is more than 0.001 mM.

For “GGGAGAUAAGAAUAAACGCUCAAAAGAAGCUGGCGACAGGCGAAAAGCAGACUUGAGGGGAAUUCGACAGGAGGCUCACAACAGGC [FCN55]”, the Kd was more than 0.001 mM.

With “GGGAGAUAAGAAUAAACGCUCAAACAAAUGUGCGCCCUUGGACGAAGUUAACUCGGACGGUUGUUCGACAGGAGGCUCACAACAGGC [FC72]”, the Kd is more than 0.001 mM.

Consider “GGGAGAUAAGAAUAAACGCUCAAAAAGUGUAGCCUUCCUGGACUGUAGGUACUAGGACGGUCCUUCGACAGGAGGCUCACAACAGGC [FCN38]”, for which the dissociation constant Kd is more than 0.001 mM.

In the case of “GGGAGAUAAGAAUAAACGCUCAAACAAAUGUGCGCCCUUGGACGAAGUUAACUCGGACGGUUCUUCGACAGGAGGCUCACAACAGGC [FC69]”, the Kd is more than 0.001 mM.

Regarding “GGGAGAUAAGAAUAAACGCUCAAUAGGAGCCUAGCAGCCCCUGCAUCGAUCACUAGGAUGGUUUUCGACAGGAGGCUCACAACAGGC [FCN30]”, the dissociation constant Kd was more than 0.001 mM.

“GGGAGAUAAGAAUAAACGCUCAAAAGUCUGAGACUCCUGGACUGAAUUAGCUAGGACGGCUGUUCGACAGGAGGCUCACAACAGGC [FCN19]”: the Kd is more than 0.001 mM.

As for “GGGAGAUAAGAAUAAACGCUCAAACAAAUGUGCUCCCUUGGACGAAGUUAACUCGGCGGUUCGACAGGAGGCUCACAACAGGC [FCN44]”, the Kd was more than 0.001 mM.

Consider “GGGAGAUAAGAAUAAACGCUCAAACAAAUGUGCGCCCUUGGACGAAGUUAACUCGGACGGUUCUUCGACAGGAGGCUCACAACAGGC [FCN16]”, for which the Kd was more than 0.001 mM.

In general, Kd refers to a measure of binding affinity in units of concentration.

The values are drawn from patent US6127119, “Nucleic acid ligands of tissue target” (NeXstar Pharmaceuticals, Inc.).
